Measured data: PubChem BioAssay AID1259254 (NCATS, 2017)

- Screen: 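Genome-wide screen for genes that prevent DNA re-replication in cancer cells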 (primary screen)
- Cell system: human HCT116 colorectal cancer cells
- Knock-down reagent: single siRNA against human genes
- Duration: 3 days
- Read-out: 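Imaged Hoechst DNA stain sorts each cell into a cycle phase by DNA amount; per plate, G2 fraction set to 0% for non-targeting and 100% for GMNN siRNA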
- Reading the numbers: G2 robust z-score: higher = more G2 cells, more excess DNA replication
- Active means: 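An siRNA counts as active if its G2 robust z-score lies at least 5 MADs above the screen median; here such calls match roughly 38% of GMNN control or more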
The whole screen tested about 59,000 reagents; shown is an unselected part. Of all reagents, about 1,550 (2.6%) were called active. 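G2 share is only a proxy for re-replication; each gene was hit by three separate siRNAs, and active genes were retested.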 Entries without a mark were called inactive. Reagents against one gene are numbered here. Further read-outs or replicates are left out here. The record does not give: the amount of reagent.

ODF2 (outer dense fiber of sperm tails 2) #1 → G2 robust z-score: -0.48
ODF2 (outer dense fiber of sperm tails 2) #2 → G2 robust z-score: -0.129
ODF2 (outer dense fiber of sperm tails 2) #3 → G2 robust z-score: 0.46
FAM89B (family with sequence similarity 89 member B) #1 → G2 robust z-score: 0.105
FAM89B (family with sequence similarity 89 member B) #2 → G2 robust z-score: -0.174
FAM89B (family with sequence similarity 89 member B) #3 → G2 robust z-score: 0.641
FECH (ferrochelatase) #1 → G2 robust z-score: -1.51
FECH (ferrochelatase) #2 → G2 robust z-score: -0.98
FECH (ferrochelatase) #3 → G2 robust z-score: -0.124
KCNJ10 (potassium inwardly rectifying channel subfamily J member 10) #1 → G2 robust z-score: 0.194
KCNJ10 (potassium inwardly rectifying channel subfamily J member 10) #2 → G2 robust z-score: 1.47
KCNJ10 (potassium inwardly rectifying channel subfamily J member 10) #3 → G2 robust z-score: -0.422
SRSF8CP (serine and arginine rich splicing factor 8C, pseudogene) #1 → G2 robust z-score: 1.8
SRSF8CP (serine and arginine rich splicing factor 8C, pseudogene) #2 → G2 robust z-score: 0.324
SRSF8CP (serine and arginine rich splicing factor 8C, pseudogene) #3 → G2 robust z-score: 1.6
EEF1DP1 #1 → G2 robust z-score: 0.147
EEF1DP1 #2 → G2 robust z-score: 1.14
EEF1DP1 #3 → G2 robust z-score: -0.83
ATP13A1 (ATPase 13A1) #1 → G2 robust z-score: 1.86
ATP13A1 (ATPase 13A1) #2 → G2 robust z-score: 0.213
ATP13A1 (ATPase 13A1) #3 → G2 robust z-score: -1.18
KCNK7 (potassium two pore domain channel subfamily K member 7) #1 → G2 robust z-score: 2.44
KCNK7 (potassium two pore domain channel subfamily K member 7) #2 → G2 robust z-score: 1.71
KCNK7 (potassium two pore domain channel subfamily K member 7) #3 → G2 robust z-score: -0.82

2 entries from above, reformatted:
gene	reagent	G2 robust z-score
ODF2 (outer dense fiber of sperm tails 2)	2	-0.129
ODF2 (outer dense fiber of sperm tails 2)	3	0.46
